# Measurements reported in publication doi:10.1101/2021.06.08.447515.
# Amino acid sequences for entries named in this document (tags omitted). A change or cut given only in a name is not applied to a line headed by its entry.
# UniProt Q27335: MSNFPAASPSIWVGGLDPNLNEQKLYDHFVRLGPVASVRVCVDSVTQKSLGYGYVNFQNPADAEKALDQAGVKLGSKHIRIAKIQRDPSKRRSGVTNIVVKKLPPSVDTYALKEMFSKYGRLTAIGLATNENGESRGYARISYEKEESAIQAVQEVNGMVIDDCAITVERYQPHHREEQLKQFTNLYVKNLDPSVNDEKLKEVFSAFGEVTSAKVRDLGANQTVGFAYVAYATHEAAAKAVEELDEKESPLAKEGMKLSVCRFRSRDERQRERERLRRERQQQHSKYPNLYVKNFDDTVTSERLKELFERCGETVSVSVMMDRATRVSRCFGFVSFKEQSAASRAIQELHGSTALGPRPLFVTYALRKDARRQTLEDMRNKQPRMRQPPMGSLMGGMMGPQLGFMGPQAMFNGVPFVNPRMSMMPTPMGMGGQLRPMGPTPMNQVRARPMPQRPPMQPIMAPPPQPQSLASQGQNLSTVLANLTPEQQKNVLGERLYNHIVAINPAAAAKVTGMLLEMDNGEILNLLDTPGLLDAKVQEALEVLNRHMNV
# How the values were obtained:
# [1] = target: T1, recombinant canonical H2B (His-tag) (T. cruzi (CL Brener strain)) (UniProt B5U6T3); assay: affinity purification with mass spectrometry
# T1 sequence: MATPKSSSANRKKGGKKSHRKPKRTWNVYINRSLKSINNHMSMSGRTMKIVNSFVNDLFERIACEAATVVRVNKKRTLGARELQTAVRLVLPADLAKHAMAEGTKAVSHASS
# [2] = target: T1, recombinant canonical H2B (His-tag) (T. cruzi (CL Brener strain)); assay: affinity purification with mass spectrometry; remark: listed apart in the source
binding [1],binding [2],Substance
,binds,tousled-like kinase II (T. cruzi (endogenous in TCTs))
,binds,lupus La protein homolog (T. cruzi (endogenous in TCTs))

# Second part, the substance before the results:
Substance,binding [1],binding [2]
polyadenylate-binding protein (from UniProt Q27335),binds,binds
high mobility group protein TDP1 (T. cruzi (endogenous in TCTs)),,binds
double RNA binding domain protein 3,binds,binds

# Read-outs that look alike come from different tables or passages of the source. Results are given in words; binding and its absence hold for the method and conditions named. Binding seen in cells or lysates may run through a third protein. Here binding means that the protein was enriched with, or labelled near, the bait; the list need not be complete. Tags and fused reporters may be left off the sequences shown.
